# Data: paper PMC10952895, “Assessment of the potential of novel and classical opioids to induce respiratory depression in mice” (British Journal of Pharmacology, 2023)
# Sequences of proteins named here, by UniProt entry; tags and fusion partners are left off.
# UniProt P42866: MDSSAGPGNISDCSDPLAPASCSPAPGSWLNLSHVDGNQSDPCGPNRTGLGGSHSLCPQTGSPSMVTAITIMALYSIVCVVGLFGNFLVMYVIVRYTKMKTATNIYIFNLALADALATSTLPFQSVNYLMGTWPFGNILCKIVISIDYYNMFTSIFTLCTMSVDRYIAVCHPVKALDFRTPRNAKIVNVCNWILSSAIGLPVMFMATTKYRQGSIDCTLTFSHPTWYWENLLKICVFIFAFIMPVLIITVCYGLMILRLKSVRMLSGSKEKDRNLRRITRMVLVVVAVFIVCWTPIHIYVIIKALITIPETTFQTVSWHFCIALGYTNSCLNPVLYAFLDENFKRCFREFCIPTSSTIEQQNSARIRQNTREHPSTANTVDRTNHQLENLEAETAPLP
# UniProt P32121: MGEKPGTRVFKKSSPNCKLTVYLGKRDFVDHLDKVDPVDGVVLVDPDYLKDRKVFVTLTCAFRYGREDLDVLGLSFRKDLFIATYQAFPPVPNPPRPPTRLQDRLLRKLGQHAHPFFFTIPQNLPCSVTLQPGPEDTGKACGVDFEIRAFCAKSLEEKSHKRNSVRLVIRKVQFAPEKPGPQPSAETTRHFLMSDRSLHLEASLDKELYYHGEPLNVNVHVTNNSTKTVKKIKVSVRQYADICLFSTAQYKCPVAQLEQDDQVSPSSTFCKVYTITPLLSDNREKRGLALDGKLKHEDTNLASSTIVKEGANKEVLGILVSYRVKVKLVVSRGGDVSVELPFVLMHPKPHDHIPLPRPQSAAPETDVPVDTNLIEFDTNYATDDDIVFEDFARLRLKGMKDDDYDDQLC
# No constants are given. Whether binding was seen depends on the method and setting. In cells and extracts the contact can be indirect. Some results given as binding are weak or reduced against the parent protein; the word gives no strength.
# Target: μ-receptor-RLuc8 (UniProt P42866)
# Assay: FRET or BRET; live HEK 293 cells transiently transfected with μ-receptor-RLuc8 (donor), arrestin-3-Venus (acceptor) and GRK2; PBS, coelenterazine h 5 μM; opioid agonists added (DAMGO, morphine, oxycodone, methadone, tianeptine, oliceridine, SR-17018); response 10 min after opioid addition, normalised to DAMGO
substance,measurement,value
arrestin-3-Venus (from UniProt P32121 1-409),binding,binds
